According to the supplement of paper PMC10849652:
The other results are listed elsewhere or left out.

Chains of the proteins cited; added tags and fusions are not shown. Lines headed by an entry give the natural chain unless they say otherwise; changes in a name come on top.
UniProt Q16864, whole entry, looked up: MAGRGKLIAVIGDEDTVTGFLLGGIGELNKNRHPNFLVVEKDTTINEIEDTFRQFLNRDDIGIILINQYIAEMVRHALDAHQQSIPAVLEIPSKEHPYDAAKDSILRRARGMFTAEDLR
UniProt O75787, whole entry, looked up: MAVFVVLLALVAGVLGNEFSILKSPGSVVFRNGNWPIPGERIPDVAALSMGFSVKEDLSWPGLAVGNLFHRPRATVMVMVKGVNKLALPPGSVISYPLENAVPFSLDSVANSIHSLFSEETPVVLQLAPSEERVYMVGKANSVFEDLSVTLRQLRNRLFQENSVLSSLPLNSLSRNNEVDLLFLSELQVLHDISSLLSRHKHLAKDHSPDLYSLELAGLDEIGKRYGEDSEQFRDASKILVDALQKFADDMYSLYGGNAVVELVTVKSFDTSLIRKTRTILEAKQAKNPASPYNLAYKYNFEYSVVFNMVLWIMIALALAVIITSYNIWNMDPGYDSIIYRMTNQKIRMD
UniProt Q99700, whole entry, looked up: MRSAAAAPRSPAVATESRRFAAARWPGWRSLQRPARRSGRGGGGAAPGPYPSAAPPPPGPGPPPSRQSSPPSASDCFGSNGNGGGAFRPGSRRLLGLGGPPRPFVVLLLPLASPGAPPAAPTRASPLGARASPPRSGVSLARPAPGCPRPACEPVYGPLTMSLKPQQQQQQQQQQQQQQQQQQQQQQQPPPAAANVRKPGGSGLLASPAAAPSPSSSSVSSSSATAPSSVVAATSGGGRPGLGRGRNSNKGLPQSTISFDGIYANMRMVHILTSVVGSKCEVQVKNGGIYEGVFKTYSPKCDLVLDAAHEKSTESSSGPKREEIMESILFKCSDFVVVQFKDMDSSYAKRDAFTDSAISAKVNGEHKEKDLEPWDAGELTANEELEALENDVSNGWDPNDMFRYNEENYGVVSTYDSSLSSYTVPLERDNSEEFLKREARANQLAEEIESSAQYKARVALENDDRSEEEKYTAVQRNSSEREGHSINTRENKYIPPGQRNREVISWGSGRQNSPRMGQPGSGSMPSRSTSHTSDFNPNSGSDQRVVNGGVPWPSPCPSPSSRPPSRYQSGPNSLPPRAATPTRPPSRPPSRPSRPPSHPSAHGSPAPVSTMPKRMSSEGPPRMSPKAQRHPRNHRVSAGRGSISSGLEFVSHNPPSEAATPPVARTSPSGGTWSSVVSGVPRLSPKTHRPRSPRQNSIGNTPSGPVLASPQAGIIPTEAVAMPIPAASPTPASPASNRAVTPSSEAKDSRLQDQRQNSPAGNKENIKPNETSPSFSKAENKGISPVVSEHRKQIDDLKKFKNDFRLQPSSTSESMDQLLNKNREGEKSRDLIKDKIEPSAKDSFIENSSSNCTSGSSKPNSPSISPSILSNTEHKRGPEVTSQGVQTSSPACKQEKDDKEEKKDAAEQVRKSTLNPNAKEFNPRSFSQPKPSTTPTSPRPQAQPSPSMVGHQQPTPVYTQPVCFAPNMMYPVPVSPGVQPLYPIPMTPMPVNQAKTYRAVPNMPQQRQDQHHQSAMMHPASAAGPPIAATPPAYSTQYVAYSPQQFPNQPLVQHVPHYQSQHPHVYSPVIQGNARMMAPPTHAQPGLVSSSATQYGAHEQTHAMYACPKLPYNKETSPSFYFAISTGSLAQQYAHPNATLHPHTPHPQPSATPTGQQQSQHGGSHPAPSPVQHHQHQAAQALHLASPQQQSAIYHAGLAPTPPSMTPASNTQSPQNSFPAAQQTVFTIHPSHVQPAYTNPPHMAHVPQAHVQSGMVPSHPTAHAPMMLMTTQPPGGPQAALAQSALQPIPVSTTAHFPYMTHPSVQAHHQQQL
UniProt Q9Y575: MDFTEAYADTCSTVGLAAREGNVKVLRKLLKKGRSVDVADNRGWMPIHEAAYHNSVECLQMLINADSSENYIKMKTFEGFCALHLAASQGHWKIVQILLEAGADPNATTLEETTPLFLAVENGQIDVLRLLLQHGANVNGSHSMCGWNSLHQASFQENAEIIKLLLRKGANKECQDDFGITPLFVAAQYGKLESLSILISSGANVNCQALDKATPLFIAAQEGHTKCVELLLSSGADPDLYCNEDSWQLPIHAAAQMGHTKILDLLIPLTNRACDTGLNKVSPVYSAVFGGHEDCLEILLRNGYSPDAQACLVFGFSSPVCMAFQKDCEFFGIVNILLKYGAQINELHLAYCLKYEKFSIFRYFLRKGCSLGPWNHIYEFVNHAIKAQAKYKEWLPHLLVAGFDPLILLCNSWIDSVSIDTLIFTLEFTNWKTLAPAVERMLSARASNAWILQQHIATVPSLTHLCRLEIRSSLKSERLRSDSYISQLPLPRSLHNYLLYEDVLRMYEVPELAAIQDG
UniProt P14415, whole entry, looked up: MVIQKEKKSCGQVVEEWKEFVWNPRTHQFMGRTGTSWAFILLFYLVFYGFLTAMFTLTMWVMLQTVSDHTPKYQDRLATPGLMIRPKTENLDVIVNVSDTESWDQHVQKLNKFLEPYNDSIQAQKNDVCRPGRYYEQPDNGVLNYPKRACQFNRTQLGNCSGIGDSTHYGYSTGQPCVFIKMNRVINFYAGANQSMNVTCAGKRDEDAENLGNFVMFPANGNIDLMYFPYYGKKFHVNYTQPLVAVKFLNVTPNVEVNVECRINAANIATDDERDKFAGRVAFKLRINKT
UniProt O14965: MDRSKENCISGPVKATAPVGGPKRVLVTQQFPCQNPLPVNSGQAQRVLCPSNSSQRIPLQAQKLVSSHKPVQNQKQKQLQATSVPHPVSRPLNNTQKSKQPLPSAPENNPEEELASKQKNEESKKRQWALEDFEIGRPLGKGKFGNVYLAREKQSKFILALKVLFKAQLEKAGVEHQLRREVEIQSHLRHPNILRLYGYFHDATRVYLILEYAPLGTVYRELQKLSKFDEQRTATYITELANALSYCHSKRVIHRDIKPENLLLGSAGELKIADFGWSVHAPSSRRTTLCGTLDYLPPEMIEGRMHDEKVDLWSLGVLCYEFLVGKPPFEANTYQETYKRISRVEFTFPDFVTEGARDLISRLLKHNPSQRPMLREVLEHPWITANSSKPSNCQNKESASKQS
UniProt Q8WWM7: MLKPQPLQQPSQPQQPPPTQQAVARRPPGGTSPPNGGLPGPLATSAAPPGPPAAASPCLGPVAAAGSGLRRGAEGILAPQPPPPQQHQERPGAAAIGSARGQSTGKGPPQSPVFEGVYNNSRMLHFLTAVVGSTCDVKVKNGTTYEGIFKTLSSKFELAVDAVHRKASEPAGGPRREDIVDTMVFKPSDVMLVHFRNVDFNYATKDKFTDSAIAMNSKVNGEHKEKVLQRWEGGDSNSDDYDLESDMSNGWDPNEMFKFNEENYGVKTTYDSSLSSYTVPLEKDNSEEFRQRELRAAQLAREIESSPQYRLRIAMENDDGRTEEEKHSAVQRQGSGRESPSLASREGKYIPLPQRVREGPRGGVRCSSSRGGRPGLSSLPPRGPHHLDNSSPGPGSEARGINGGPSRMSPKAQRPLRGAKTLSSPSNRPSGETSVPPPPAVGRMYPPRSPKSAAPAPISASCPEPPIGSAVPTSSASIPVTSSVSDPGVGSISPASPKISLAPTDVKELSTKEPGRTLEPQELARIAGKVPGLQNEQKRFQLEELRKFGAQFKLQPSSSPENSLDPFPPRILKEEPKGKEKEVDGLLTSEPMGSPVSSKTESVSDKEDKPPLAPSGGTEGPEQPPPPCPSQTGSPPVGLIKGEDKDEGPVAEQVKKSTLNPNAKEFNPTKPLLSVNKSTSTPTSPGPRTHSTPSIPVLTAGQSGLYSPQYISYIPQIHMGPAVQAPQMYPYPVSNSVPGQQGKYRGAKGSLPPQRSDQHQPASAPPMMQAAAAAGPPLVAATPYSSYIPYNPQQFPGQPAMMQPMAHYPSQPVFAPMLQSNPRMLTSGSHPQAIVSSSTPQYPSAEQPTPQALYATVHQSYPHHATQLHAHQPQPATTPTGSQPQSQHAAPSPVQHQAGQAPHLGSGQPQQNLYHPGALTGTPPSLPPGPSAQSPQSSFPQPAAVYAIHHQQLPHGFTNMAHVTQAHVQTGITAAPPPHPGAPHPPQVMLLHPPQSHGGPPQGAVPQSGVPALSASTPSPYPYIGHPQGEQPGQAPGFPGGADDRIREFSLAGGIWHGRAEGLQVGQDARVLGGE
UniProt P20020: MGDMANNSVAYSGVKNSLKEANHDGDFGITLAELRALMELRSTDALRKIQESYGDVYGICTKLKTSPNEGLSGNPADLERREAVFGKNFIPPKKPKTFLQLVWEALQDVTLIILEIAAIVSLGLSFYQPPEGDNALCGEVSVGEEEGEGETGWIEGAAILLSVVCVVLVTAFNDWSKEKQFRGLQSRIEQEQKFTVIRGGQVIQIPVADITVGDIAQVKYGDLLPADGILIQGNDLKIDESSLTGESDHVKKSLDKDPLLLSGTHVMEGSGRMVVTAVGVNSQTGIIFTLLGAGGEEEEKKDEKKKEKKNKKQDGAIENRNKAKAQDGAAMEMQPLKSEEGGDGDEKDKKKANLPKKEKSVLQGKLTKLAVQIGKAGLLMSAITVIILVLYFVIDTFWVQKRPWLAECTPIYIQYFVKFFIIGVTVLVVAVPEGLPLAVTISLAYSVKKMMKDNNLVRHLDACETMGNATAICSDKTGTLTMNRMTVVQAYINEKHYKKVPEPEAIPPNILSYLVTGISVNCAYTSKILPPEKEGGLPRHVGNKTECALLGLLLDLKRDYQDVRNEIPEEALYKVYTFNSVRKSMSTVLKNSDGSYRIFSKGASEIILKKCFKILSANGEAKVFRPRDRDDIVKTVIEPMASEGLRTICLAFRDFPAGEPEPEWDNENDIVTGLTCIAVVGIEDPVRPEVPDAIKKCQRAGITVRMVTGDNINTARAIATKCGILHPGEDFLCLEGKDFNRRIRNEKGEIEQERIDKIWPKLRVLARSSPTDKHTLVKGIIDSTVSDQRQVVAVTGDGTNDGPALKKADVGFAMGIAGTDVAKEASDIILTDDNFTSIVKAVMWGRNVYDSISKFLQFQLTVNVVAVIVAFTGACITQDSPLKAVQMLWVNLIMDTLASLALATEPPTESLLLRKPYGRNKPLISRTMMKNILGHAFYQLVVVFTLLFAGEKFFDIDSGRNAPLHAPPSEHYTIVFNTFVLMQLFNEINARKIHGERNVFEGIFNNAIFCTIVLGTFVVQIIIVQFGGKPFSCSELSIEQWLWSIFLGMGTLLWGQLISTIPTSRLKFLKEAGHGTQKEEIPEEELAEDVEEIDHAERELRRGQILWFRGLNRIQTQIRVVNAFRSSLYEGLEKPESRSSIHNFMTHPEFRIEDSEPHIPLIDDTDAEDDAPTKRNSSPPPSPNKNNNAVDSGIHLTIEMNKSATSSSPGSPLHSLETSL

How the values were obtained:
Assay in all cases: log2 fold change, soluble protein after heating vs DMSO (PISA); higher = thermal stabilisation; K562 lysate, 10 uM; active = over 0.2 and 3.5 SD of the protein, either way, in both replicates (recomputed)
[1] = compound: C1=CC=C(C=C1)[C@H](COC2=CC3=C(C=C2)NC(=O)N3)NC(=O)C4=CC=CN(C4=O)CC5=CC(=C(C=C5)F)F
Method in brief: (§1)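 Quantification was by TMTpro 16plex LC-MS/MS with equalised channel sums, applied to the supernatant after 21,000xg for 90 min. Samples were crude K562 extract at 1 mg/mL protein in PBS pH 7.4 with 1 mM MgCl2, treated with 10 μM compound for 30 min, heated for 3 min across 48°C-58°C, pooled and brought to 0.5% NP-40 at 4°C. Values are log-two fold changes in thermal stability relative to solvent controls, from duplicates.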

[2] = compound: CC1=C(SC2=C1C(=N[C@H](C3=NN=C(N32)C)CC(=O)N)C4=CC=C(C=C4)Cl)C
Method in brief: as §1

[3] = compound: CC1=C2C(=CC=C1)N=C(N(C2=O)C3=CC=CC=C3C)CN4C=NC5=C(N=CN=C54)N
Method in brief: as §1

[4] = compound: Cc1sc2c(c1C)C(c1ccc(Cl)cc1)=N[C@@H](CC(=O)OC(C)(C)C)c1nnc(C)n1-2
Method in brief: as §1

[5] = compound: c1ccc([C@@H]2C[C@H]2NC2CCNCC2)cc1
Method in brief: as §1

Measured: log2 fold change

ATP6V1F isoform 2 (UniProt Q16864)
inactive: [1] -0.026 | [2] 0.039 | [3] 0.018 | [4] -0.013 | [5] 0.22

ATP6AP2 (UniProt O75787)
inactive: [1] -0.033 | [2] 0.044 | [3] 0.075 | [4] -0.02 | [5] 0.091

ATXN2 (UniProt Q99700)
inactive: [1] 0.013 | [2] 0.016 | [3] 0.075 | [4] -0.02 | [5] -0.021

Random excerpt: 2 entries already listed.
ATP6V1F isoform 2 (UniProt Q16864)
inactive: [1] -0.026 | [2] 0.039 | [3] 0.018 | [4] -0.013 | [5] 0.22

ATP6AP2 (UniProt O75787)
inactive: [1] -0.033 | [2] 0.044 | [3] 0.075 | [4] -0.02 | [5] 0.091

More records:

ASB3 isoform 3 (UniProt Q9Y575)
inactive: [1] -0.12 | [2] -0.279 | [3] 0.003

ATP1B2 (UniProt P14415)
inactive: [1] 0.018 | [2] 0.033 | [3] -0.03 | [4] -0.002

AURKA (UniProt O14965)
inactive: [1] -0.053 | [2] -0.001 | [3] -0.042 | [4] -0.055 | [5] -0.157

ATP1A1 (UniProt P05023)
inactive: [1] 0.029 | [2] 0.001 | [3] -0.005 | [4] -0.015 | [5] -0.018

ATXN2L (UniProt Q8WWM7)
inactive: [1] -0.032 | [2] 0.035 | [3] 0.095 | [4] 0 | [5] 0.003

ATP2B1 isoform 1 (UniProt P20020)
inactive: [1] -0.012 | [2] -0.015 | [3] 0.011 | [4] -0.056 | [5] -0.037
